Patent US10221225B2, “Peptides and combination of peptides and scaffolds thereof for use in immunotherapy against colorectal carcinoma (CRC) and other cancers” (immatics biotechnologies GmbH, priority 2015, dated 2019)

Tested on: tumor tissue samples (CRC and other tumor types) compared to a panel of normal tissues
Assay: Identification and label-free relative LC-MS quantitation of HLA-presented peptides (presentation profiles, over-presentation)
Set-up: species or system human
Conditions: positive/measured samples, FIG. 1 legend (not shown)

## 1 (ALIKQLFEA; listed as Homo sapiens) [compound 1]
  peptide additionally detected on prostate cancers: 1/33
